The exact form of at least one protein or probe is not confirmed.
Tested on: SrpR-6xHis
Experiment: EMSA
Details: salmon sperm DNA strongly decreased binding, not completely; recombinant protein; protein details: C-terminal 6xHis; label: unlabelled, SYBR Green stain

Row | Sequence | binding result
1 | TACTTATCTCCTGTGCACTCAAAGTGCTCTAACGGTTTTC (double strand) [R2-R4 (R4-R2)] | binds
2 | TGGCCACGCTTGGGCATTTCCAAGTGCTCTGGCGGTTCAC (double strand) [R1-R3 (R3-R1)] | binds

— paper PMC4489591
